Values from PubChem BioAssay AID504791 (Drosophila RNAi Screening Center, 2011).
Assay: 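Genes of the fly required for silencing by miRNA, siRNA or endo-siRNA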 (primary screen). System: Drosophila S2-derived reporter cells. Reagent: long dsRNA against Drosophila genes, about 150-250 ng dsRNA per well (siRNA assay); about 80-120 ng (miRNA assay). Duration: about 5 days (siRNA assay); about 4 days (miRNA assay). Conditions: copper sulfate induction of reporters: 25 µM (siRNA assay); 200 mM stated (miRNA assay), 1-2 days before reading. Detection: 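Per-well ratio of Renilla over firefly light, expressed relative to that plate's average ratio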. Units: stable assay Renilla, run 1 in luminescence; stable assay firefly, run 1 in luminescence. Active means: 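a well was a first-pass pick when its plate-scaled ratio rose above 1.5 (siRNA assay) or 1.6 (miRNA assay), or dropped below 0.6; a gene counted only if two separate dsRNAs agreed on retest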.
The deposit covers about 23,000 reagents; shown is an unselected part of those with a known target gene and a result. In the full data, 199 (0.86%) got an active call. 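Plate-scaled ratios behind the calls are not deposited; printed light signals are raw; many rows marked increased or decreased are still called inactive.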 Not stated in the record: the direction of the score.

How did the screen score Alg10 (ALG10 alpha-1,2-glucosyltransferase) [DRSC10892]?
stable assay Renilla, run 1: 5515; stable assay firefly, run 1: 3.05e5; Outcome: inactive

How did the screen score CG11600 [DRSC14332]?
stable assay Renilla, run 1: 6539; stable assay firefly, run 1: 4.24e5; Outcome: inactive

What did the screen give for CG15056 [DRSC19630]?
stable assay Renilla, run 1: 5948; stable assay firefly, run 1: 4.14e5; Outcome: inactive

How did the screen score CG43901 [DRSC19397]?
stable assay Renilla, run 1: 5340; stable assay firefly, run 1: 3.73e5; Outcome: inactive

For CG43901 [DRSC19652], how do the results read?
stable assay Renilla, run 1: 4036; stable assay firefly, run 1: 2.50e5; Outcome: inactive

With eIF1 (eukaryotic translation initiation factor 1) [DRSC08520], how do the results read?
stable assay Renilla, run 1: 4947; stable assay firefly, run 1: 3.07e5; Outcome: inactive

For Col4a1 (Collagen type IV alpha 1) [DRSC03291], how do the results read?
stable assay Renilla, run 1: 9589; stable assay firefly, run 1: 1.77e5; Outcome: inactive

For Gr94a (Gustatory receptor 94a) [DRSC13597], how do the results read?
stable assay Renilla, run 1: 4844; stable assay firefly, run 1: 4.36e5; Outcome: inactive

What is on record for CG1316 [DRSC08304]?
stable assay Renilla, run 1: 7515; stable assay firefly, run 1: 4.99e5; Outcome: inactive

What is on record for CG15534 [DRSC15070]?
stable assay Renilla, run 1: 7486; stable assay firefly, run 1: 4.99e5; Outcome: inactive

Which result is listed for CG13226 [DRSC06346]?
stable assay Renilla, run 1: 6148; stable assay firefly, run 1: 4.13e5; Outcome: inactive

What is on record for Acp24A4 (Accessory gland protein 24A4) [DRSC22352]?
stable assay Renilla, run 1: 8772; stable assay firefly, run 1: 6.17e5; Outcome: inactive
